Measured data: PubChem BioAssay AID1259289 (Sanger Institute, 2017)

Aim: 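Find kinases whose loss adds to targeted drugs in killing bowel cancer cells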 (primary screen)
Cells: human LS513 colorectal cancer cells
Reagent: siRNA pool against human genes
Treatment: anchor drug BYL719 at 1 µM, cetuximab at 5 µg/ml or trametinib at 10 nM, or DMSO vehicle alone; exposure time not given
Measurement: 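Cell survival as a fraction of the non-targeting pool, replicate means; robust z-score for silencing alone under DMSO; synergy score for each of BYL719, cetuximab and trametinib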
Scale: robust z-score, siRNA alone (DMSO): higher = more viable cells; strongly negative means essential
Call rule: 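a gene counts as active if its DMSO-only robust z-score falls under -3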
Meaning of the calls: active = essential (knock-down alone); inactive = not essential
The whole screen tested 794 reagents; shown is an unselected part. 16 of all reagents (2%) were called active. 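Active marks cell loss from silencing alone; drug synergy shows only in the synergy scores, not the calls.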 Not all columns of the deposit are shown. No sequences are given here. Not given: the amount of reagent, the time to read-out.

Target gene | robust z-score, siRNA alone (DMSO) | Outcome
MAP2K6 | 0.561 | inactive
PI4KA | 0.561 | inactive
PFKFB4 | 0.561 | inactive
CDKN2D | -2 | inactive
IPPK | -0.678 | inactive
CSNK1G2 | 0.561 | inactive
ZC3H11A | 0.561 | inactive
NEK4 | -0.93 | inactive
SMG1 | -2.2 | inactive
PANK3 | 0.561 | inactive
CDK11A | -1.54 | inactive
UCK1 | 0.561 | inactive
HK3 | 0.561 | inactive
ROR1 | 0.561 | inactive
ASPM | 0.561 | inactive
PIK3CB | 0.205 | inactive
NEK6 | 0.561 | inactive
SRC | 0.561 | inactive
MAP3K2 | 0.221 | inactive
COMMD3 | 0.561 | inactive
PDK2 | -1.05 | inactive
EXOSC10 | 0.115 | inactive
FBXW7 | 0.561 | inactive
IKBKB | 0.561 | inactive
EPHA4 | -0.187 | inactive
KHK | -0.389 | inactive
PRKDC | -0.0698 | inactive
RIPK4 | -0.0238 | inactive
SCYL1 | 0.561 | inactive
MAP3K4 | 0.561 | inactive
RPS6KA1 | 0.561 | inactive
EFNA4 | 0.561 | inactive
PANK2 | 0.561 | inactive
PFKP | 0.0712 | inactive
RIOK2 | -0.681 | inactive
CALM1 | -1.14 | inactive
MINK1 | -1.42 | inactive
ROCK2 | 0.391 | inactive
CLSPN | -2.32 | inactive
MLKL | 0.561 | inactive
CDADC1 | 0.259 | inactive
CERT1 | 0.561 | inactive
KSR1 | -3.71 | active
ULK4 | 0.0102 | inactive
PIK3CD | 0.561 | inactive
PHKG2 | 0.561 | inactive
RIOK1 | -1.57 | inactive
DCLK2 | -2.09 | inactive
